Results are given in words; binding and its absence hold for the method and conditions named. Some entries that bind do so weakly or less than the wild type.

By UniProt entry, the sequences of proteins in these tests, tags left out. Residues count along the entry.
UniProt P36222, residues 22-383: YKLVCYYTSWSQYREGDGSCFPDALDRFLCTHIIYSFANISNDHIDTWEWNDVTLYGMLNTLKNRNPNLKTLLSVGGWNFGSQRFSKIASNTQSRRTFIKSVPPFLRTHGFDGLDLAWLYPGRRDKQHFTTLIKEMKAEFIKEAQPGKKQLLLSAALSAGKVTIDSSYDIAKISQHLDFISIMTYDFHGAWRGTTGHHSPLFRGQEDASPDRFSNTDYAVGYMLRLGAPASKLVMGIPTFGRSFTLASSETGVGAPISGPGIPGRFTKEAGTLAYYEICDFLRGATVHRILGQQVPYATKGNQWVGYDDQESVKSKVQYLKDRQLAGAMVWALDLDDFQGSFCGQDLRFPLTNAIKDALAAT

The record followed here is patent CN114478785A.

The target in experiment [1] is 重组CHI3L1蛋白 (壳多糖酶3样蛋白1, chitinase-3-like protein 1) (human) (UniProt P36222). The experiment can be described thus: indirect ELISA screening of hybridoma clones.
The target is the same in experiment [2]. The experiment can be described thus: sandwich chemiluminescence on CHI3L1 standards, CHI-Ab1 as coating antibody.

B1: 抗人CHI3L1鼠源单克隆抗体 CHI-Ab1 (antibody, V domains shown)
VH: QVQLQQSGTELVKPGASVRLSCTASGFNIKDSYMHWVRQRPDQRLDWIGRIDPSNGNTKYDPKFQGKATITADTSSNTAYLHLSSLTSEDTAVYYCAKDVYWGQGTLVTVSA
VL: DIVMTQSPLSLPVSLGDQASISCRSSQSLVHSDGFTYLHWYLQKPGQPPKLLIYTISNRFSGVPDRVSGSGSGTDFTLKISRVEAEDLGIYFCSQTTHVPLTFGAGTKLELK
As for B1, the binding entry in experiment [1] and in experiment [2] was “binds” throughout.
